In general, AC50 refers to the concentration giving half of the maximal activity seen.

The structures appear in SMILES notation. Some of the results follow. The main result of the screen is listed elsewhere. These columns were measured beside it and carry no call. Compounds called inactive in the main read-out are mostly missing here. Words in brackets tell the shape of the fitted curve; partial curves, single points and poor fits give uncertain potencies. Where a SMILES comes first, the peptide text is derived from it. [ ]: non-standard residue; d: D form. The star is where a group is joined. Hyp = O=C(O)[CH]1C[CH](O)CN1; Cbz = O=C(OCc1ccccc1)*; OBn = c1ccc(CO*)cc1

The source of these data is PubChem BioAssay AID445 (National Center for Advancing Translational Sciences (NCATS), 2006).

This assay in a line: IkB Signaling. Conditions: ABC-DLBCL IkBa-CBG/CBR dual luciferase ratio (green luciferase fused to IkBa over red control in OCI-Ly3 lymphoma cells), 4 h. An outline of the steps: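 Luminescence ratio of IκBα-fused green versus native red beetle luciferase in OCI-Ly3 cells, 4 h post-doxycycline with compound; red signal alone, scaled from basal (0%) to zero light (-100%), flagged nonspecific or cytotoxic effects.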
The mark [1] stands for this setting: measured here: control luc red channel unless noted.
The mark [2] stands for this setting: measured here: IkB-luc green channel.
The mark [3] stands for this setting: measured here: control luc red channel.

Consider `Cc1noc(Cn2c(=O)c3cc4c(cc3n(CC(=O)Nc3cccc(Cl)c3)c2=O)OCO4)n1`, for which the AC50 under setting [1] was 15.8 µM [falling, single point].

For the compound `CCOc1ccc(CNC(=O)c2c(C)nn(-c3ccc(F)cc3)c2-n2cccc2)cc1`, the AC50 under setting [1] was 25.1 µM [falling, single point].

As for `CCOc1ccccc1NC(=O)C1CCN(S(=O)(=O)c2c(C)noc2/C=C/c2ccc(C)cc2)CC1`, the concentration at half-maximal activity (AC50) under setting [1] is 0.00631 µM [falling, full curve].

On to `COc1ccccc1OCCn1cc(C(=O)c2cccs2)c2ccccc21`, for which the concentration at half-maximal activity (AC50) under setting [1] was 10 µM [falling, partial curve].

As for `O=C(CSc1nnc(-c2cnccn2)n1Cc1ccco1)c1ccc(Cl)cc1`, the half-maximal activity concentration (AC50) under setting [1] was 7.94 µM [falling, partial curve].

With `CCOC(=O)N1CCN(C(=O)CN(c2cccc(Cl)c2C)S(=O)(=O)c2ccc(C)cc2)CC1`, the half-maximal activity concentration (AC50) under setting [1] is 25.1 µM [falling, partial curve, poor fit].

On to `COc1ccccc1-c1nc(-c2ccc(Br)o2)no1`, for which the half-maximal activity concentration (AC50) under setting [1] was 0.501 µM [falling, partial curve].

Take `Cc1cccc(-n2c(SCC(N)=O)nc3c(oc4ccccc43)c2=O)c1`: the AC50 under setting [1] is 2.51 µM [rising, partial curve].

On to `Cc1c(Cl)ccc2sc(N3CCN(C(=O)c4ccco4)CC3)nc12`, for which the half-maximal activity concentration (AC50) under setting [1] is 25.1 µM [falling, single point].

On to `OC[C@H](S)CS`, for which the AC50 under setting [2] was 3.98 µM [rising, partial curve] and the half-maximal activity concentration (AC50) under setting [3] was 3.16 µM [falling, partial curve].

For `COc1ccccc1CNc1ccc(-c2nc(C(C)C)no2)cc1[N+](=O)[O-]`, the half-maximal activity concentration (AC50) under setting [1] is 31.6 µM [falling, single point].

With `CCOc1ccc(CNC(=O)c2cc3oc4ccccc4c3n2C)cc1`, under setting [1], the AC50 is 0.126 µM [falling, full curve].

Take `Cc1ccc(C)c(NC(=O)Cn2cc(C(=O)c3ccncc3)c(=O)c3cc(F)ccc32)c1`: the concentration at half-maximal activity (AC50) under setting [1] was 1.58 µM [falling, full curve].

As for `CCN(CCNC(=O)CN1CCN(Cc2ccc(Cl)cc2)C1=O)c1ccccc1`, the concentration at half-maximal activity (AC50) under setting [1] was 6.31 µM [falling, partial curve].

Consider `Cc1cc(C)c2c(CC(=O)N(Cc3ccc(N(C)C)cc3)Cc3ccco3)coc2c1`, for which, under setting [1], the AC50 was 20 µM [falling, partial curve].

On to `O=C(O)c1ccc(CSc2nc3ccccc3o2)cc1`, for which the AC50 under setting [1] is 7.94 µM [falling, partial curve].

`O=C(CSc1nc2c(c(=O)[nH]1)CCC2)Nc1ccccc1F`: the half-maximal activity concentration (AC50) under setting [1] was 31.6 µM [falling, single point].

In the case of `CN(C)c1ccc(CNc2nc(-c3ccco3)nn2S(=O)(=O)c2ccc3ccccc3c2)cc1`, the half-maximal activity concentration (AC50) under setting [1] was 3.98 µM [falling, full curve].

As to `Cc1ccc(C(=O)Nc2ccc(Cl)c(-c3nc4ncccc4o3)c2)c(C)c1`, the half-maximal activity concentration (AC50) under setting [1] is 15.8 µM [falling, partial curve].

Regarding `Cc1ccccc1OCc1ccc(-c2nc(C#N)c(NCCCN(C)C)o2)o1`, under setting [1], the half-maximal activity concentration (AC50) was 20 µM [falling, single point].

As for `O=C(Nc1ccc(F)cc1)[C@H](Cc1ccccc1)N1Cc2ccccc2C1=O`, the AC50 under setting [1] is 25.1 µM [falling, single point].

Regarding `CCCCCn1c(CN2CCN(c3cccc(Cl)c3)CC2)nc2c1c(=O)[nH]c(=O)n2C`, the AC50 under setting [1] is 20 µM [falling, partial curve].

Turning to `CC(C)CCOc1ccc(C(=O)Nc2sc3c(c2C#N)CCCCC3)cc1`, under setting [1], the AC50 is 0.0398 µM [rising, full curve, poor fit].

Turning to `Cn1nnnc1SCCCNCc1cccc(OCc2ccc(Cl)cc2)c1`, the AC50 under setting [1] is 10 µM [falling, single point].

With `CCOC(=O)C1C(C)N=C2SCC(=O)N2C1c1cccc(Br)c1` (centres undefined), under setting [1], the half-maximal activity concentration (AC50) was 15.8 µM [falling, partial curve, poor fit].

Regarding `Cc1c(Cl)cccc1-n1ncc(C(=O)Nc2ccc3c(c2)OCCO3)c1C1CCN(C(=O)OC(C)(C)C)CC1`, the half-maximal activity concentration (AC50) under setting [1] was 39.8 µM [falling, single point].

As to `Cc1ccc2cc3cc(C(=O)Nc4ccc(F)cc4Cl)oc3nc2c1`, the AC50 under setting [1] is 25.1 µM [rising, single point].

Regarding `Cc1cc(C)cc(NC(=O)c2cc(S(=O)(=O)N3CCCCCC3)cn2C)c1`, the concentration at half-maximal activity (AC50) under setting [1] was 12.6 µM [falling, partial curve].

For `Cn1c(SCc2ccc(F)cc2)nc2ccc(C(=O)NCc3ccc(F)cc3)cc21`, the AC50 under setting [1] was 7.94 µM [falling, full curve, poor fit].

As for `Cc1ccc(-n2nc3c(N4CCC(C(=O)NC(C)C)CC4)nnc(C)c3c2C)cc1`, under setting [1], the AC50 is 1.58 µM [falling, full curve, poor fit].

Take `COc1ccc2cc(C(=O)NCc3ccco3)c(=Nc3ccc(C(=O)O)cc3)oc2c1`: under setting [1], the half-maximal activity concentration (AC50) was 0.0316 µM [falling, full curve].

Consider `CCC1CN(C(=O)N2CCC(C(=O)NCc3ccc(OC)cc3OC)CC2)c2cc(C)ccc2O1` (centres undefined), for which the AC50 under setting [1] was 1.26 µM [falling, partial curve].

Turning to `O=C(CC(Nc1ccccc1)C(=O)O)c1ccccc1` (centres undefined), the half-maximal activity concentration (AC50) under setting [1] is 7.94 µM [falling, partial curve].

Turning to `Cc1cc(C)c2oc(C(=O)Nc3sc4c(c3C(=O)NCc3ccco3)CCC4)cc(=O)c2c1`, the AC50 under setting [1] was 10 µM [falling, partial curve].

With `Cc1ccc(C)c(CN2C(=O)c3ccccc3S(=O)(=O)c3ccc(C(=O)Nc4ccccc4C(F)(F)F)cc32)c1`, the AC50 under setting [1] is 10 µM [falling, partial curve].

Consider `Cc1ccccc1CNC(=O)C1CCN(c2nnc(C)c3c(C)n(-c4ccccc4)nc23)CC1`, for which the AC50 under setting [1] is 0.0398 µM [rising, full curve].

`CCn1c(=O)cc(SCC(=O)Nc2ccc3c(c2)OCO3)c2ccccc21`: under setting [1], the half-maximal activity concentration (AC50) was 12.6 µM [falling, partial curve].

Turning to `CCc1ccc(-c2nc3ccc(Br)cc3c(C(=O)O)c2C)s1`, under setting [1], the half-maximal activity concentration (AC50) was 39.8 µM [falling, single point].

With `COC(=O)c1ccc(NC(=O)c2c(NCc3ccc(C)o3)sc3c2CCCC3)cc1`, under setting [1], the AC50 is 12.6 µM [falling, partial curve].

Consider `CC(NC(=O)CNC(=O)OCc1ccccc1)C(=O)N1CC(O)CC1C(=O)OCc1ccccc1` (stereo not drawn) (Cbz-Gly-Ala-[Hyp]-OBn; configuration not given here), for which the AC50 under setting [1] is 31.6 µM [falling, single point].

As to `CCn1c(C(=O)NCc2cccc(Br)c2)cc2oc3ccccc3c21`, the AC50 under setting [1] is 25.1 µM [falling, single point].

With `CCCC(=O)N1c2ncnn2C2(CCCCC2)[C@@H]2CCCC[C@@H]21`, the AC50 under setting [1] is 50.1 µM [falling, partial curve, poor fit].

As for `COc1ccc(N2CCN(C(=O)Cn3cnc4nc5c(cc4c3=O)CCCC5)CC2)cc1`, under setting [1], the concentration at half-maximal activity (AC50) was 1.58 µM [falling, full curve].

Take `O=C(Nc1ccc(Cc2ccncc2)cc1)c1ccc(S(=O)(=O)N2CCOCC2)cc1`: the half-maximal activity concentration (AC50) under setting [1] is 10 µM [falling, partial curve].

Take `COc1ccc(OC)c(NC(=O)CSc2c3c(nc4ccccc24)CCCC3)c1`: the AC50 under setting [1] was 10 µM [falling, partial curve].

In the case of `CCOC(=O)N/C(N)=N/c1nc2ccccc2s1`, the AC50 by setting is: under setting [2], 31.6 µM [rising, partial curve]; under setting [3], 12.6 µM [falling, partial curve].

On to `COc1ccc(CCN2C(=O)N(c3ccc(F)cc3)C(=O)C2CC(=O)Nc2ccc(F)c(F)c2)cc1` (centres undefined), for which the AC50 under setting [1] was 25.1 µM [falling, single point].

Take `C=CCn1c(SCC(=O)Nc2ccc3c(c2)OCO3)nnc1-c1ccccc1O`: the AC50 under setting [1] is 25.1 µM [falling, partial curve].

With `O=C(O)CCCC(=O)Nc1nc(-c2ccc(F)cc2)cs1`, the AC50 under setting [1] is 0.251 µM [falling, full curve].

For `COCc1nnc(NC(=O)CCC2CCCCC2)s1`, the AC50 under setting [1] was 0.631 µM [rising, full curve, poor fit].

Consider `O=S(=O)(NC1CCCC1)c1ccc(S(=O)(=O)N2CCc3ccccc32)cc1`, for which the concentration at half-maximal activity (AC50) under setting [1] is 31.6 µM [falling, partial curve].

`Cc1sc2c(c1C)c(=O)n(-c1cccc(C(F)(F)F)c1)c(=O)n2Cc1ccccc1C#N`: the concentration at half-maximal activity (AC50) under setting [1] was 0.1 µM [rising, partial curve].

As to `CCCCn1c(-c2ccc(C)cc2)c(C)n2c3c(=O)n(C)c(=O)n(C)c3nc12`, the concentration at half-maximal activity (AC50) under setting [1] was 12.6 µM [falling, partial curve].

`Cc1ccc(OCCCCn2c(CCNC(=O)C(C)(C)C)nc3ccccc32)cc1`: under setting [1], the AC50 is 15.8 µM [falling, partial curve].

Regarding `O=C(CCC1CCCCC1)Nc1ccccc1O`, the AC50 under setting [1] is 7.94 µM [falling, partial curve].

Take `Cc1cc(C)cc(N(CC(=O)Nc2cccc(C)n2)S(=O)(=O)c2c(C)noc2C)c1`: the half-maximal activity concentration (AC50) under setting [1] is 10 µM [falling, partial curve].

With `Clc1cccc(-c2nnc(SCc3nc4ccccc4[nH]3)n2Cc2ccco2)c1`, under setting [1], the concentration at half-maximal activity (AC50) was 25.1 µM [falling, partial curve].

On to `O=C(NC1CCCC1)c1ccc2c(c1)N(Cc1ccccc1F)C(=O)c1ccccc1S2`, for which the AC50 reads like this: under setting [2], 3.16 µM [rising, single point]; under setting [3], 3.98 µM [rising, partial curve, poor fit].

As to `CC1=C(C(=O)OCc2ccc(C)cc2)C(c2ccccc2Cl)CC(=O)N1` (centres undefined), under setting [1], the concentration at half-maximal activity (AC50) is 39.8 µM [rising, single point] [measured here: IkB-luc green channel].

For `Cc1cccc(OCC(=O)Nc2ccc3c(c2)nc(CCNC(=O)c2ccco2)n3C)c1`, the concentration at half-maximal activity (AC50) under setting [1] was 12.6 µM [falling, partial curve].

`Cc1c(NC(=O)Nc2cccc(Cl)c2)c(=O)n(-c2ccccc2)n1C`: under setting [1], the AC50 is 39.8 µM [rising, single point].
